Experimental data published in PMC10709637, “Phospholipids are imported into mitochondria by VDAC, a dimeric beta barrel scramblase” (Nature Communications, 2023).
These are yes or no findings as the source states them, for the method shown. Some entries that bind do so weakly or less than the wild type. Sequences can lack the tags named with a protein.

T1: C-terminal Twin-Strep-tagged yeast VDAC (Por1-TS) (S. cerevisiae), P04840
T1 chain: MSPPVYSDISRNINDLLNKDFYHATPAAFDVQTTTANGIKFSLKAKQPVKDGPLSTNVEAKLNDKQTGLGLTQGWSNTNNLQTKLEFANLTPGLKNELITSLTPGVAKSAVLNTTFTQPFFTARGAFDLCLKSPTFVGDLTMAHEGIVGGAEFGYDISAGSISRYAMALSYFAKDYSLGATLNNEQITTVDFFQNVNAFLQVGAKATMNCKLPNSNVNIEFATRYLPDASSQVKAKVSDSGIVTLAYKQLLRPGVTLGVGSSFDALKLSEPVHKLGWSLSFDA

T2: human VDAC2 (Voltage Dependent Anion Channel 2), N-terminal hexahistidine tagged (human), P45880
T2 chain: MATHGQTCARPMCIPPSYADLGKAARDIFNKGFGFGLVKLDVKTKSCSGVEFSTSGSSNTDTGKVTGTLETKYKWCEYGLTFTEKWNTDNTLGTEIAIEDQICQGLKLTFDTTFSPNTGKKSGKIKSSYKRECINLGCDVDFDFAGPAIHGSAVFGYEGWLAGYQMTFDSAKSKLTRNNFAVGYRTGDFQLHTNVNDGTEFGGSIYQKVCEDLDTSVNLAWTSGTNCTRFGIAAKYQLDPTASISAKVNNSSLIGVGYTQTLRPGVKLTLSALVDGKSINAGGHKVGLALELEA

B1: endogenous Por1 (yeast VDAC), P04840 1-283 (protein)
chain: T1 chain
B2: human VDAC2 (Voltage Dependent Anion Channel 2), N-terminal hexahistidine tagged, P45880 1-294 (natural protein)
chain: T2 chain

Assays:
[1] = molecular target: T1, C-terminal Twin-Strep-tagged yeast VDAC …; assay: co-purification (Strep-Tactin XT affinity chromatography, then SEC); Por1-TS over-expressed in yeast, membranes solubilised in 1% LDAO, bound to Strep-Tactin XT, washed in 0.1% LDAO, eluted with 50 mM biotin, SEC in 0.05% LDAO; settings: remark: other sources report otherwise
[2] = molecular target: T2, human VDAC2 (Voltage Dependent Anion …); assay: cross-linking; EGS cross-linking after reconstitution into LUVs (POPC/POPG) in 10 mM MOPS/KOH pH 7.0, 100 mM KCl; 16x mole excess of EGS, 20 °C, 40 min; SDS-PAGE immunoblot (anti-His for human VDAC, anti-VDAC1/Porin for yeast porin); both purified; settings: remark: other sources report otherwise

Binder | binding [1] | binding [2]
B1 | binds | –
B2 | – | binds
